This is an account of results in paper PMC7819943, “Rice protein-binding microarrays: a tool to detect cis-acting elements near promoter regions in rice”.

Sequences of proteins named here, by UniProt entry; tags and fusion partners are left off.
UniProt Q0JBA9, entry or part of it: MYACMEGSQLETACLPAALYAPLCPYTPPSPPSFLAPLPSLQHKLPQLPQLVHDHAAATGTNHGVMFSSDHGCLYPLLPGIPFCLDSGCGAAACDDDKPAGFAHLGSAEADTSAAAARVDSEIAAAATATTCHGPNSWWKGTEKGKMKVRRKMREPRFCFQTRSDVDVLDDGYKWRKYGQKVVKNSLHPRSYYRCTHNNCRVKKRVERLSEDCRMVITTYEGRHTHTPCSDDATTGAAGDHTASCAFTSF

Some of the results follow.

This experiment deals with OsWRKY34 (Oryza sativa, UniProt Q0JBA9 1-250). Nature of the experiment: protein-binding microarray (RPBM); PBS, 2% BSA, 51.3 ng/ul salmon testes DNA, 50 uM zinc acetate, 200 nM TF, 25 C, 1 h; high values mean tight binding. The settings on record: protein: recombinant; tags: N-terminal polyhistidine and DsRed monomer fusion (pET32a); label: CyDye5-dUTP incorporated in the synthesized complementary strand; 3' TTTTT single-stranded linker to array surface; dsDNA, one strand shown. The method, boiled down: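 An Axon 4000B scanner gave the binding signal as per-feature fluorescence intensity in arbitrary units. This followed washing of a custom Agilent array that had been incubated for 1 h at 25 °C with 200 nM protein in PBS, 2% BSA, salmon testes DNA and 50 µM zinc acetate. The proteins were transcription factors fused at the N-terminus to polyhistidine and DsRed, expressed in E. coli BL21-CodonPlus and purified on Ni–NTA.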
On to “AACTAACCAGCATTTTTCCCCAGTTCTTCGGATCTGGACACGGAGTCACCTAGTGCAG”, for which the binding signal was 9190 fluorescence intensity (a.u.). For “TAAAAATAATTATTGTCATTGTCATAGTGTACCCTTCTGCCGGAGTCACCTAGTGCAG”, the binding signal was 9650 fluorescence intensity (a.u.). The figure for “CAGGTGGAGGTGGAGGCGGTGGCGGTGAGGGAGGCGGGCACGGAGTCACCTAGTGCAG” is 13500 fluorescence intensity (a.u.); for “CAAAATTCTGCGTTTTTCCTATTCCTATGTTTTCTCGTTCCGGAGTCACCTAGTGCAG” it is 9240 fluorescence intensity (a.u.).

In the case of “CTTAGCAACAACCACTTCCATTCATTGGGGAGGGAAAGCGCGGAGTCACCTAGTGCAG”, the binding signal was 8590 fluorescence intensity (a.u.). For the sequence “ATTCTGCCGGCCGGCCGCTGCCCTTCTTCCTCTCCGCGCGCGGAGTCACCTAGTGCAG”, the binding signal was 10800 fluorescence intensity (a.u.). As for “TGCTTCAATTATCCAGCTTTGGAAACTCGCTGTTTGTTTCCGGAGTCACCTAGTGCAG”, the binding signal was 8510 fluorescence intensity (a.u.).

In the case of “CCATCTCCAATTCTCCATCGATCATCTATCTCTCACGATCCGGAGTCACCTAGTGCAG”, the binding signal is 9120 fluorescence intensity (a.u.).

For “CATTTTAGTCTACCAGCTGCATTTCTTCTGCTTTAAGGACCGGAGTCACCTAGTGCAG”, the binding signal is 8650 fluorescence intensity (a.u.). For “AGAGAGAGGGGAGAGGGGTGGAAGGGGAATATGGTAGCTGCGGAGTCACCTAGTGCAG”, the binding signal is 12600 fluorescence intensity (a.u.). “TTTCTTCGTCCTCTTGGTTTCCCTTTCAATTCATTCATTTCGGAGTCACCTAGTGCAG”: the binding signal is 8460 fluorescence intensity (a.u.). “AAGTCACAAATCTCTACGTTTTTTTTCCTCGCGAGGCGTACGGAGTCACCTAGTGCAG”: the binding signal was 9450 fluorescence intensity (a.u.). Regarding “GGTTTTTTTTCAGCGAAATTTATTTTTCACCATTTACTTTCGGAGTCACCTAGTGCAG”, the binding signal is 10300 fluorescence intensity (a.u.). Consider “GACGATAATTAGGGGCCTGTTCACTTTGATGCTATTTTTACGGAGTCACCTAGTGCAG”, for which the binding signal is 9230 fluorescence intensity (a.u.). With “TCAATTTTTAGGTTTTTGTGTCTAGCGTTTGACCGTCCGTCGGAGTCACCTAGTGCAG”, the binding signal was 8580 fluorescence intensity (a.u.). Consider “AGTTTCCGTCCGTTTCCGATCCGTTTTCATCCCTACACCCCGGAGTCACCTAGTGCAG”, for which the binding signal is 13000 fluorescence intensity (a.u.). For “TCCCGGCAGTTCTTACCCTGCATCATCAGAGTGGTCATTACGGAGTCACCTAGTGCAG”, the binding signal is 9320 fluorescence intensity (a.u.). On to “GCGCGCGCGTCCTTCGGGCACCCTCGCACCGCACCGTCCGCGGAGTCACCTAGTGCAG”, for which the binding signal was 8200 fluorescence intensity (a.u.). As for “ACGAACCTAAGCACTTCCAAATCAAATCAATCAAAGCTCTCGGAGTCACCTAGTGCAG”, the binding signal was 56100 fluorescence intensity (a.u.). As to “ATGTGTGGATTTATAAGGGTGAGTATATGTGTTTCGGGAACGGAGTCACCTAGTGCAG”, the binding signal is 8140 fluorescence intensity (a.u.). Turning to “ACTACCCACTTGCATCCCTAAATTTTAGTACTTTTCTCATCGGAGTCACCTAGTGCAG”, the binding signal was 9300 fluorescence intensity (a.u.). For the sequence “GGGTGGGTGATCTATCGATACAATGCATGCGTGGGCTTCTCGGAGTCACCTAGTGCAG”, the binding signal was 15800 fluorescence intensity (a.u.). Turning to “GTTTTTCTTGTTCCTTTTCTGAGCTAGATTTCTTGCTGCTCGGAGTCACCTAGTGCAG”, the binding signal was 8760 fluorescence intensity (a.u.). As to “CGATGGTTTGGTTTACCGCTTTGCCCCGGTTCTTCGCTTTCGGAGTCACCTAGTGCAG”, the binding signal is 8580 fluorescence intensity (a.u.). For the sequence “AGAGTCGCAAGGGTAGGCAAGGTAATGCAAAATGATTATACGGAGTCACCTAGTGCAG”, the binding signal is 8050 fluorescence intensity (a.u.). As for “GCTTTACCTGTTTACCTCAAGTTGCAGCTGATTTTCACAACGGAGTCACCTAGTGCAG”, the binding signal is 8380 fluorescence intensity (a.u.). Turning to “CTGTTTTACAATTGTATTCCTGTCAGAATCCTGTGTTTTTCGGAGTCACCTAGTGCAG”, the binding signal was 11100 fluorescence intensity (a.u.).

On to “CGACAAAACACCCCGATTCCACCCACCCCACCACGAAACCCGGAGTCACCTAGTGCAG”, for which the binding signal is 8660 fluorescence intensity (a.u.). As for “GTTTGTGCCGCCCCGTCGCCCGACGCCGTCACCTCCGCTCCGGAGTCACCTAGTGCAG”, the binding signal was 9650 fluorescence intensity (a.u.). Under “TGGGTTGGGATTTGTGCTTGTTTTTTTTTTTTGTGCGTGTCGGAGTCACCTAGTGCAG” stands 16600 fluorescence intensity (a.u.); under “CCTCCACCTCTAAGTCAAGTCACCACCGCCATCATCCATGCGGAGTCACCTAGTGCAG”, 8560 fluorescence intensity (a.u.); under “CATCCATCTTCTACCCATCCCAATCTCCCTAGCCAGCATACGGAGTCACCTAGTGCAG”, 8020 fluorescence intensity (a.u.). As for “GAGGGAGGGTCATCGCCATCGAATCCCAAAAAATCACCCGCGGAGTCACCTAGTGCAG”, the binding signal is 8150 fluorescence intensity (a.u.). For the sequence “ACTCTCTCTGTTTCAGGTCATAAGACGTTTTGACTTTGGACGGAGTCACCTAGTGCAG”, the binding signal was 10600 fluorescence intensity (a.u.). With “TTACCCAGTCTTCTACCCATCTCTCTCTCCCTAGCCTAGTCGGAGTCACCTAGTGCAG”, the binding signal is 8360 fluorescence intensity (a.u.). On to “ATACAATCTACTTGAATCGTTTTTTCTTTACTTTTCAGTTCGGAGTCACCTAGTGCAG”, for which the binding signal is 9840 fluorescence intensity (a.u.). As for “GTATATGCGCGCACAAGAGATTTGAAGTGACCTTTCCATACGGAGTCACCTAGTGCAG”, the binding signal was 8100 fluorescence intensity (a.u.). In the case of “TCCCCTATCCAGGGAGGGTTTTGACTTTTTTGACTCTGACCGGAGTCACCTAGTGCAG”, the binding signal was 10900 fluorescence intensity (a.u.). The figure for “AGTACTCCCTCCGTTTCTAAATATTTGACACCGTTGACTTCGGAGTCACCTAGTGCAG” is 12700 fluorescence intensity (a.u.); for “GACCTAGCTCTGCCCTTTCTTTCTGAAATAAATAATGCATCGGAGTCACCTAGTGCAG” it is 8960 fluorescence intensity (a.u.).

Turning to “GACAAAGCCGTAAATTCCGCCCCGTTTCGCTGTGCCGTGCCGGAGTCACCTAGTGCAG”, the binding signal is 9950 fluorescence intensity (a.u.).

As to “GACAGTATACCTTCAACTTTTATTTACCGTCTTCTCTTTCCGGAGTCACCTAGTGCAG”, the binding signal was 8350 fluorescence intensity (a.u.). Regarding “ATACCTCTCGCACCTGTCCATGTTGCCTTGTAGATATACACGGAGTCACCTAGTGCAG”, the binding signal is 14700 fluorescence intensity (a.u.). Under “GGAGGGCGGGTTGGGCTGGATCCGGGCGACGACGGCTCCGCGGAGTCACCTAGTGCAG” stands 16000 fluorescence intensity (a.u.); under “AACTTTTCTACACACATAAACTTCTAATTTTTCCAACATACGGAGTCACCTAGTGCAG”, 8330 fluorescence intensity (a.u.). Consider “AATTCAGACAACCTTGTTCCCGTTGACGAATTCAGCCCACCGGAGTCACCTAGTGCAG”, for which the binding signal was 8760 fluorescence intensity (a.u.). Consider “GCCAAAGCCATACCCATCATCTTCACATGGAATTCCAATTCGGAGTCACCTAGTGCAG”, for which the binding signal is 8960 fluorescence intensity (a.u.). Consider “GCATCTCTGCCCCAGTTCGTGCGTAGTATGTCACGCTCACCGGAGTCACCTAGTGCAG”, for which the binding signal was 12000 fluorescence intensity (a.u.). As to “ATCCAAGCGCCCGCCTCTATATATGCGCGCCGCCACCATGCGGAGTCACCTAGTGCAG”, the binding signal is 8370 fluorescence intensity (a.u.). Take “TTACTCTTCTCTCTCTTCCTTTATCTCTTTAAAATATTACCGGAGTCACCTAGTGCAG”: the binding signal was 9970 fluorescence intensity (a.u.). For the sequence “TCACTGCCTCTCTTCTTGCTCATCTCCCAATCCACTACTTCGGAGTCACCTAGTGCAG”, the binding signal was 8900 fluorescence intensity (a.u.). Turning to “GTCGTCATGTTCCAAAAGTCTCGTCCCATGTGACCCTCCACGGAGTCACCTAGTGCAG”, the binding signal is 8310 fluorescence intensity (a.u.). As for “GCTTTCGACCCACTACATAATTTTTTTATTTCCTATTCCACGGAGTCACCTAGTGCAG”, the binding signal was 9700 fluorescence intensity (a.u.). Regarding “AATCATATTCTTCACCTCTGCAGTTTCATTCCTTTCAGGCCGGAGTCACCTAGTGCAG”, the binding signal is 9040 fluorescence intensity (a.u.).
